# Screening data, single-dose tests

Source: ChEMBL document CHEMBL3988442, “University of Dundee, Small-Polar-MMV Screening Library” (2021).

Mtb cholesterol medium: 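Growth of Mycobacterium tuberculosis over 4 days (cholesterol / DPPC medium with tyloxapol); the read-out is not stated. Compounds at 50 µM. Direction is inferred from retests: higher values go with more growth inhibition. Size under these conditions: about 69,000 compounds, about 370 of them at 50% or above in at least one test.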
Mtb glucose medium: 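Whole-cell growth test on Mycobacterium tuberculosis, read after 3 days in glucose-containing 7H9 medium; the read-out is not stated. Compounds at 50 µM. The record gives no direction; compounds that gave an IC50 in retests scored well above the rest, so higher reads as more growth inhibition. Of about 69,000 compounds tested this way, about 760 (1.1%) reached 50% or more in at least one test.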

Each number is a percent effect as filed.
The controls that fix the scale are not given in the record; negative values are as filed.
The compounds are a random part of those screened.
Two or more numbers in one place are separate tests of the same structure; such repeats can differ widely.

Compound	Mtb cholesterol medium	Mtb glucose medium
Cc1ncc(-c2ccnc(N3CCCCCC3)n2)c(-c2cccnc2)n1	-6.161	-20.63
Cc1noc2nc(C3CCN(Cc4ccncc4)CC3)cc(C(F)F)c12	-12.28	-22.41
CC(=O)N1CCC(c2nccnc2-c2ccc(F)c(F)c2)CC1	-21.02	-5.635
O=c1ccc(-c2cccs2)nn1CN1CCCCCC1	7.163	30.95
O=C(NCCc1c[nH]cn1)c1n[nH]c2c1CCC2	-7.217	1.412 and 15.5
COCc1nn(C(C)C)c2c1CCN(Cc1ccoc1)C2.O=C(O)C(F)(F)F	13.23	-17.98
CC(=O)N1CCN(C(=O)c2[nH]nnc2Nc2ccccc2F)CC1	-2.068	-18.95
COCC(=O)N1CCCC1c1ccc(C(=O)NCCN2CCCCC2)s1 (configuration not stated)	15.28	-0.6189 and -1.093
CC(=O)NCCc1ncnn1-c1ccc(F)c(Cl)c1	10.47	-11.61
CC(C)Cc1noc(CC2CCS(=O)(=O)C2)n1 (configuration not stated)	-7.797	0.7267 and -0.0156
CCC(=O)c1ccc(OCC(=O)NC(C)c2nnn[nH]2)cc1 (configuration not stated)	-16.11	18.13
CN(Cc1cnn(C)c1)CC(O)c1ccc2c(c1)OCCCO2 (configuration not stated)	-9.249	-23.66
COCc1nnc(NC(=O)CN2C(=O)c3ccccc3NC2C(C)C)s1 (configuration not stated)	13.47	12.78
c1cc(-c2nnc(C3CCCN(CC4CCCCC4)C3)o2)ccn1 (configuration not stated)	-6.205	20.23
COCC(=O)N[C@H]1C[C@@H](Cc2cc(CN3CCCCC3)on2)C1(C)C	-62.59	-70.42 and -1.68
CCCn1c(NCCc2ccccc2)nc2c(C)nn(C)c2c1=O	25.43	31.92
CN1C(=O)CC(c2ccccc2)C12CCN(CC1CCOCC1)CC2.O=C(O)C(F)(F)F (configuration not stated)	10.94	-4.963
O=C(Cc1ccc(F)cc1)NCCNc1cc(N2CCCC2)cnn1	-4.768	7.395
CN(C)C(=O)c1cccc(NC(=O)Cc2cc(F)ccc2F)n1	10.61	15.09 and -1.749
CN(CCn1cnnc1)S(=O)(=O)c1ccc(C(F)(F)F)nc1	-6.444	-9.198
CCCc1nc(C)cc(NCCc2nnc(N)s2)n1	-4.043	-23.13 and -4.621
CC(C)NC(=O)N1CCC2(CC(=O)N(c3cccc(C#N)c3)C2)C1 (configuration not stated)	-21.99	-18.46
CCC(O)CN1CCN(C(=O)CN(C)c2ccc(Cl)cn2)CC1 (configuration not stated)	4.273	-13.07 and 3.151
CCC(C)(CCO)NC(=O)c1ccon1 (configuration not stated)	-63.34	-65.62
Cc1ccc(C(=O)NC2CCN(Cc3nc(CC(C)C)no3)CC2)s1	-13.39	-17.74
CC1C(=O)Nc2cccnc2N1S(=O)(=O)c1cc(F)cc(F)c1 (configuration not stated)	-22.47	-20.32
Cc1nc(CN2CCN(C(=O)NC(C)c3cccnc3)CC2)cs1 (configuration not stated)	-19.11	-29.7
CCSCCNC(=O)Nc1cc(C(=O)N2CCOCC2)ccc1Cl	7.684	13.7
CN(CCN1CCN(c2ccccc2)CC1)C(=O)Nc1ccncc1	12.2	24.38 and 8.109
CC(=O)N1CCC(c2ccnc(Nc3cc(C(F)(F)F)ccn3)n2)C1 (configuration not stated)	4.199	-6.186
CN(C)C1(CNc2nccc(C3CCCC3)n2)CCOCC1	-13.6 and -1.419	4.603
CN(CC1CCN(CCO)CC1)CC(O)c1ccc(F)c(F)c1 (configuration not stated)	-22.23	-28.91
CC(C)n1cc(C(=O)NCCN(C)C)c2n[nH]c(=O)c-2c1	-3.473	-16.33
CC(C)n1ncc2c1NC(=O)CC21C(=O)Nc2c(Cl)cc(Cl)cc21 (configuration not stated)	4.26	22.82
Cc1cscc1C(=O)Nc1cncnc1N(C)C	-3.714	1.105 and -2.845
O=c1[nH][nH]cc1-c1ccnc(NCCc2ccc(F)cc2)n1	-10.52	9.399
COC(C(=O)N1CCN(Cc2noc(C)n2)CC1)c1ccccc1 (configuration not stated)	-3.171	34.93 and 2.198
CC(C)c1nc(C2CCCN(C(=O)c3ccc4nncn4c3)C2)no1 (configuration not stated)	-12.97	-18.42
CCOC1CC2(CCN(CCO)CC2)c2ccc(C)cc21 (configuration not stated)	-3.129	-14.24 and -8.06
CSCC(C)(O)CNC(=O)c1ccc(Br)cc1F (configuration not stated)	-1.132	5.048
CC(NC(=O)N1CCC[C@H]1CO)c1noc(-c2ccccc2)n1 (some centres not stated)	-5.357	-5.694

Repeated from the top, 4 entries:

Cc1ncc(-c2ccnc(N3CCCCCC3)n2)c(-c2cccnc2)n1 read Mtb cholesterol medium: -6.161%; Mtb glucose medium: -20.63%.
Cc1noc2nc(C3CCN(Cc4ccncc4)CC3)cc(C(F)F)c12 read Mtb cholesterol medium: -12.28%; Mtb glucose medium: -22.41%.
CC(=O)N1CCC(c2nccnc2-c2ccc(F)c(F)c2)CC1 read Mtb cholesterol medium: -21.02%; Mtb glucose medium: -5.635%.
O=c1ccc(-c2cccs2)nn1CN1CCCCCC1 read Mtb cholesterol medium: 7.163%; Mtb glucose medium: 30.95%.